Measured values from paper PMC8933458.
No constants are given. Whether binding was seen depends on the method and setting. Binding seen in cells or lysates may run through a third protein. Some binding calls cover weakened binding; strength is not graded here.

Protein sequences, listed by entry. Tags and fused reporters are not part of them.
UniProt Q8TB72: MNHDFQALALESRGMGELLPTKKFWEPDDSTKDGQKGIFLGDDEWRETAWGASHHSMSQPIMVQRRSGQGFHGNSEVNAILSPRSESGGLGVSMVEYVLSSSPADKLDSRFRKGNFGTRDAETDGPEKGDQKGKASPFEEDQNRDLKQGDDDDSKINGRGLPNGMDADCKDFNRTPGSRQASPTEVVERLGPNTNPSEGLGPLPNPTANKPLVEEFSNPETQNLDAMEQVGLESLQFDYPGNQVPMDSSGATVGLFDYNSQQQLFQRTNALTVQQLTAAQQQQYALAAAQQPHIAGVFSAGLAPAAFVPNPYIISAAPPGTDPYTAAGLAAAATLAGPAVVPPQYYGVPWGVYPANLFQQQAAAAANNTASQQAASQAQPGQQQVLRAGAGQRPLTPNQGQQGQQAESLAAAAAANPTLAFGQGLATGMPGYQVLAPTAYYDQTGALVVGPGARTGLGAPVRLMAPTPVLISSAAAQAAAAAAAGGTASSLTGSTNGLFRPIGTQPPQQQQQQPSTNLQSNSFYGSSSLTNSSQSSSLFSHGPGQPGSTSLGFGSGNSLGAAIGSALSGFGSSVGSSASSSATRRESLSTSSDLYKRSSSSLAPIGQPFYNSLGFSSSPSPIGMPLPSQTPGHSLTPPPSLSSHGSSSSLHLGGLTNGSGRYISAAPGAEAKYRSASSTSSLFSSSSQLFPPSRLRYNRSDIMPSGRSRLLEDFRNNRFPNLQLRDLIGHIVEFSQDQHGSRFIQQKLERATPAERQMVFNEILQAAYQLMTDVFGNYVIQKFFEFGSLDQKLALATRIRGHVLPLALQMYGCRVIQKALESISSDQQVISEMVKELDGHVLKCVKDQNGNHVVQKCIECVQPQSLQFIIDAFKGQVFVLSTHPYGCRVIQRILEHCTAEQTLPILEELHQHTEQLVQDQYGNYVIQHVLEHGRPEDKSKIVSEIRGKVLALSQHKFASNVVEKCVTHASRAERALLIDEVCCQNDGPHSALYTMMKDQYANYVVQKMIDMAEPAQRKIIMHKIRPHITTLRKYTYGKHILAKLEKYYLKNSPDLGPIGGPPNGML
UniProt Q14671: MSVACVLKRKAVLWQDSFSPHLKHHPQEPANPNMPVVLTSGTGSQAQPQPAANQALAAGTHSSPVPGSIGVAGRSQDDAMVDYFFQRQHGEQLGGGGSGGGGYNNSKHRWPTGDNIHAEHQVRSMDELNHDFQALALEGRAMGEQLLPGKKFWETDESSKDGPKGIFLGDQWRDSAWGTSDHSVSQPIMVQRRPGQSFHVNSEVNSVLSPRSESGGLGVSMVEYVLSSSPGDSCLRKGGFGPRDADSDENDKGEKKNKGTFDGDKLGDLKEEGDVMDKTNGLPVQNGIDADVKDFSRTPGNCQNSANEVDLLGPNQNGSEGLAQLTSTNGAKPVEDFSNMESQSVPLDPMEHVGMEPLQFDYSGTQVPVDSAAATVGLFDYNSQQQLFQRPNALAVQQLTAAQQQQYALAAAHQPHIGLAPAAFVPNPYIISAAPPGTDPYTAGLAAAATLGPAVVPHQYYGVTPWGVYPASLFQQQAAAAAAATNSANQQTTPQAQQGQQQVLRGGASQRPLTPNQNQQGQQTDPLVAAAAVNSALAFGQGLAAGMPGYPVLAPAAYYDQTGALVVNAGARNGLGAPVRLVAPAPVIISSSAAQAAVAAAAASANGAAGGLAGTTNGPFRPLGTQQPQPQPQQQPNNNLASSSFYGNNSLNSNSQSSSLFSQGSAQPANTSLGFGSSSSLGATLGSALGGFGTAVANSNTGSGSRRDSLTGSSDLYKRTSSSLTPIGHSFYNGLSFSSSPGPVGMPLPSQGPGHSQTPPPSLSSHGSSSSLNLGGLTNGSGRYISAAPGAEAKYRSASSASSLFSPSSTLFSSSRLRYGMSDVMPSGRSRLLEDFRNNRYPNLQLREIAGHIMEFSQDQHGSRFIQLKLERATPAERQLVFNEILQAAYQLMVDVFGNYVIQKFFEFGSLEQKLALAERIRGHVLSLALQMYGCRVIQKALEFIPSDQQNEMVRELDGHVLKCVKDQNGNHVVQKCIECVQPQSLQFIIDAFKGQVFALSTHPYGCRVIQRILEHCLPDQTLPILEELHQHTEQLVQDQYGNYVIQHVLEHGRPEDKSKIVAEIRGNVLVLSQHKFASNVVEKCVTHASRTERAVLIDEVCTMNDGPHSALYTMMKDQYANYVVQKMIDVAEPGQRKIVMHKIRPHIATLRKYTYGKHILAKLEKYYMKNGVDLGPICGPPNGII
UniProt A5YKK6: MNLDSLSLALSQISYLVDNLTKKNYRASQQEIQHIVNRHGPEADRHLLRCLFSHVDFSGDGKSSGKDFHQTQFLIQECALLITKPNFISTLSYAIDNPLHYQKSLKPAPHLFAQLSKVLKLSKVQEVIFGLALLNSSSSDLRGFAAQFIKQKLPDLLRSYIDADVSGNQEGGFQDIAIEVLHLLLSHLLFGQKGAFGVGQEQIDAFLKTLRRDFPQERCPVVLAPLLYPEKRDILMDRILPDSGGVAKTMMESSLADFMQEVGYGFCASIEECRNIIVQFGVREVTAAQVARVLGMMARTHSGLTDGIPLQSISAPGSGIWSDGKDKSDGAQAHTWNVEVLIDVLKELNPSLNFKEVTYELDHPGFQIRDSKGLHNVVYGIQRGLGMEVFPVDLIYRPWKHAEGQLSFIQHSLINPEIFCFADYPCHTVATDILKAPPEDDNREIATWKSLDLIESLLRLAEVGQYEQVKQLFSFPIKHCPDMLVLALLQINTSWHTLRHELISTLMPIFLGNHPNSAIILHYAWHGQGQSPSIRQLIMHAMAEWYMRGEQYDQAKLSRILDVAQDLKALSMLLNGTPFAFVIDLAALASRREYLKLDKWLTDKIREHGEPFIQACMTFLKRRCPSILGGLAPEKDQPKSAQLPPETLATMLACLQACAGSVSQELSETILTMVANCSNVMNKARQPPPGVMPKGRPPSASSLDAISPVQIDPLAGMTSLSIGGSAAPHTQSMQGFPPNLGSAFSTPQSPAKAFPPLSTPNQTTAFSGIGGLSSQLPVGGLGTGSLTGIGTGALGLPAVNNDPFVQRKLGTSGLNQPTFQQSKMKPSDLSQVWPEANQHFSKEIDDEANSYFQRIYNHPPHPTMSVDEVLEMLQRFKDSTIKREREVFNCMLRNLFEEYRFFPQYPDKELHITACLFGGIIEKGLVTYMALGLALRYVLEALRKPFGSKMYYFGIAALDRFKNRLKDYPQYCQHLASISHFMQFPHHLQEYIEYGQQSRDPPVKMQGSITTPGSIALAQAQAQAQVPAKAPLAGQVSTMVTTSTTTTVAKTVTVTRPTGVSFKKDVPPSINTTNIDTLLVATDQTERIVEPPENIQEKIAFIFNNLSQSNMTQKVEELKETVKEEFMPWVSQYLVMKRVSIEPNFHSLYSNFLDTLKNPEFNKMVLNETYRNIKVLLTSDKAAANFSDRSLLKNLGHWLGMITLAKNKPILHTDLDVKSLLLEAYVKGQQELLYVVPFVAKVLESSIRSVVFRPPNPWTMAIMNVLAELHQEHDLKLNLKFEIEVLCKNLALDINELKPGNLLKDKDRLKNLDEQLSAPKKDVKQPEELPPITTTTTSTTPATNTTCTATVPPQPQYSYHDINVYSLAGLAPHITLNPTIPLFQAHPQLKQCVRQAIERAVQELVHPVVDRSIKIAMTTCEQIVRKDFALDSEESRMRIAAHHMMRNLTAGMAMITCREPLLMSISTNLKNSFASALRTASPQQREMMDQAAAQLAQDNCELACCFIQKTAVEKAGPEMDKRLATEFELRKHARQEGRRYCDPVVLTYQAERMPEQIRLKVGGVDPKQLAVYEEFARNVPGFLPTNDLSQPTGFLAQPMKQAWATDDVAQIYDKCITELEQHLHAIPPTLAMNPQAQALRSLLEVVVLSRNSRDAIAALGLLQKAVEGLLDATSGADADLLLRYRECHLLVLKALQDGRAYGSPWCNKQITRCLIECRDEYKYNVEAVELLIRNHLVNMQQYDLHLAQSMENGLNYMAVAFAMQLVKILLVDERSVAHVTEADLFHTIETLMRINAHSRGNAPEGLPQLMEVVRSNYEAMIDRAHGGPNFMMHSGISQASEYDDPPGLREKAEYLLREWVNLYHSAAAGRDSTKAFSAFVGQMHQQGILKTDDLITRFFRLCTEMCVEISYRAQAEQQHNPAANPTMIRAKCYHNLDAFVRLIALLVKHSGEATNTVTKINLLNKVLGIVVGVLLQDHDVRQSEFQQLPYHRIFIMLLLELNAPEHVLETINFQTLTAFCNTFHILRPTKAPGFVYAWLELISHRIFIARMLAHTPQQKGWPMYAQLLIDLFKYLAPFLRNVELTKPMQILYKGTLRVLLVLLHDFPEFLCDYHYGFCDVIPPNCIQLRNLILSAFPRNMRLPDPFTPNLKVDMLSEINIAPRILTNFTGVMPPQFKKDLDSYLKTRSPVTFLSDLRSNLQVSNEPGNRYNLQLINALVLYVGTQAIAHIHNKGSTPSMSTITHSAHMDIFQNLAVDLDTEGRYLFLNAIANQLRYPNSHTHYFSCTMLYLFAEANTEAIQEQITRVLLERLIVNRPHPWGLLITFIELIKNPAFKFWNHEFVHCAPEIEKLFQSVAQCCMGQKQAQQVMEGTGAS

Assays:
[1] = molecular target: PUM2 (human (endogenous in human NPCs)) (UniProt Q8TB72); test: co-IP; co-immunoprecipitation from NPCs with or without PUM1/2 overexpression; which protein was precipitated is not told in the text shown
[2] = molecular target: PUM1 (human (endogenous in human NPCs)) (UniProt Q14671); test: as above
[3] = molecular target: PUM2 (human (endogenous in human NPCs)) (UniProt Q8TB72); test: proximity ligation; PLA in NPCs with or without PUM1/2 overexpression
[4] = molecular target: PUM1 (human (endogenous in human NPCs)) (UniProt Q14671); test: as above

Measured: binding

CNOT1 (from UniProt A5YKK6 1-2376)
binds: all assays above
